{"source": "PubChem BioAssay AID743121 (NCATS, 2013)", "test": "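Partners whose loss is lethal together with topoisomerase I blockade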 (primary screen)", "system": "MDA-MB-231 cells, a human breast cancer line", "knock-down reagent": "single siRNA against human genes, 20 nM siRNA (0.8 pmol per well)", "duration": "120 h (drug added 48 h after transfection, read 72 h later)", "treatment": "camptothecin 20 nM (about EC30) for 72 h; vehicle 0.1% DMSO in parallel plates", "measured": "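Cell viability by ATP luminescence (CellTiter-Glo) as % of non-targeting siRNA wells, and the log2 ratio of viability without drug over viability with camptothecin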", "direction": "log2 vehicle/camptothecin viability: higher = stronger sensitisation to camptothecin; viability with camptothecin: higher = more viable cells", "active means": "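Active genes have an RSA gene-level p-value below 0.001, computed from the ratios of their separate siRNAs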", "note": "Shown is an unselected part of about 26,000 reagents. 167 of all reagents (0.63%) were called active. 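Calls are per gene from RSA p-values that are not deposited; an individual active-marked siRNA can sensitise only weakly.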 A number with no mark means an inactive call. Further read-outs or replicates are left out here."}
{"gene":"GLRB (glycine receptor beta)","PubChem SID":"SID164366776","log2 vehicle/camptothecin viability":-0.139,"viability with camptothecin (% of control)":126}
{"gene":"GLRB (glycine receptor beta)","PubChem SID":"SID164366777","log2 vehicle/camptothecin viability":-0.0918,"viability with camptothecin (% of control)":85.1}
{"gene":"GLRB (glycine receptor beta)","PubChem SID":"SID164366778","log2 vehicle/camptothecin viability":0.558,"viability with camptothecin (% of control)":42.2}
{"gene":"RNF139 (ring finger protein 139)","PubChem SID":"SID164416478","log2 vehicle/camptothecin viability":-0.335,"viability with camptothecin (% of control)":112}
{"gene":"RNF139 (ring finger protein 139)","PubChem SID":"SID164416479","log2 vehicle/camptothecin viability":-0.0324,"viability with camptothecin (% of control)":50.5}
{"gene":"RNF139 (ring finger protein 139)","PubChem SID":"SID164416481","log2 vehicle/camptothecin viability":-0.249,"viability with camptothecin (% of control)":24.4}
{"gene":"RNF139 (ring finger protein 139)","PubChem SID":"SID164416483","log2 vehicle/camptothecin viability":-0.275,"viability with camptothecin (% of control)":97.3}
{"gene":"BMAL1 (basic helix-loop-helix ARNT like 1)","PubChem SID":"SID164354155","log2 vehicle/camptothecin viability":-0.0253,"viability with camptothecin (% of control)":75.4}
{"gene":"BMAL1 (basic helix-loop-helix ARNT like 1)","PubChem SID":"SID164354156","log2 vehicle/camptothecin viability":-0.0978,"viability with camptothecin (% of control)":101}
{"gene":"BMAL1 (basic helix-loop-helix ARNT like 1)","PubChem SID":"SID164354157","log2 vehicle/camptothecin viability":-0.197,"viability with camptothecin (% of control)":104}
{"gene":"BMAL1 (basic helix-loop-helix ARNT like 1)","PubChem SID":"SID164354158","log2 vehicle/camptothecin viability":0.0157,"viability with camptothecin (% of control)":91.9}
{"gene":"AQP4 (aquaporin 4)","PubChem SID":"SID164353855","log2 vehicle/camptothecin viability":-0.505,"viability with camptothecin (% of control)":77.7}
{"gene":"AQP4 (aquaporin 4)","PubChem SID":"SID164353857","log2 vehicle/camptothecin viability":-0.475,"viability with camptothecin (% of control)":66.8}
{"gene":"AQP4 (aquaporin 4)","PubChem SID":"SID164353860","log2 vehicle/camptothecin viability":-0.088,"viability with camptothecin (% of control)":40.1}
{"gene":"AQP4 (aquaporin 4)","PubChem SID":"SID164353861","log2 vehicle/camptothecin viability":-0.118,"viability with camptothecin (% of control)":36.9}
{"gene":"TRIML2 (tripartite motif family like 2)","PubChem SID":"SID164586646","log2 vehicle/camptothecin viability":-0.101,"viability with camptothecin (% of control)":69.8}
{"gene":"TRIML2 (tripartite motif family like 2)","PubChem SID":"SID164586647","log2 vehicle/camptothecin viability":-0.251,"viability with camptothecin (% of control)":43.4}
{"gene":"TRIML2 (tripartite motif family like 2)","PubChem SID":"SID164586648","log2 vehicle/camptothecin viability":0.207,"viability with camptothecin (% of control)":27.3}
{"gene":"TRIML2 (tripartite motif family like 2)","PubChem SID":"SID164586650","log2 vehicle/camptothecin viability":-0.134,"viability with camptothecin (% of control)":116}
{"gene":"MPZ (myelin protein zero)","PubChem SID":"SID164376059","log2 vehicle/camptothecin viability":-0.0347,"viability with camptothecin (% of control)":59.6}
{"gene":"MPZ (myelin protein zero)","PubChem SID":"SID164376060","log2 vehicle/camptothecin viability":-0.0991,"viability with camptothecin (% of control)":89.7}
{"gene":"MPZ (myelin protein zero)","PubChem SID":"SID164376063","log2 vehicle/camptothecin viability":-0.0669,"viability with camptothecin (% of control)":101}
{"gene":"MPZ (myelin protein zero)","PubChem SID":"SID164376066","log2 vehicle/camptothecin viability":0.169,"viability with camptothecin (% of control)":67.1}
{"gene":"ZMYM2 (zinc finger MYM-type containing 2)","PubChem SID":"SID164395230","log2 vehicle/camptothecin viability":1.04,"viability with camptothecin (% of control)":22.7}
{"gene":"ZMYM2 (zinc finger MYM-type containing 2)","PubChem SID":"SID164395233","log2 vehicle/camptothecin viability":-0.0888,"viability with camptothecin (% of control)":85}
{"gene":"ZMYM2 (zinc finger MYM-type containing 2)","PubChem SID":"SID164395234","log2 vehicle/camptothecin viability":-0.248,"viability with camptothecin (% of control)":82.7}
{"gene":"ZMYM2 (zinc finger MYM-type containing 2)","PubChem SID":"SID164395235","log2 vehicle/camptothecin viability":-0.35,"viability with camptothecin (% of control)":92.7}
{"gene":"KISS1 (KiSS-1 metastasis suppressor)","PubChem SID":"SID164372871","log2 vehicle/camptothecin viability":0.155,"viability with camptothecin (% of control)":62.9}
{"gene":"KISS1 (KiSS-1 metastasis suppressor)","PubChem SID":"SID164372874","log2 vehicle/camptothecin viability":0.327,"viability with camptothecin (% of control)":32.7}
{"gene":"KISS1 (KiSS-1 metastasis suppressor)","PubChem SID":"SID164372875","log2 vehicle/camptothecin viability":-0.675,"viability with camptothecin (% of control)":34.1}
{"gene":"KISS1 (KiSS-1 metastasis suppressor)","PubChem SID":"SID164372876","log2 vehicle/camptothecin viability":0.0546,"viability with camptothecin (% of control)":64.8}
{"gene":"LGR5 (leucine rich repeat containing G protein-coupled receptor 5)","PubChem SID":"SID164398366","log2 vehicle/camptothecin viability":0.286,"viability with camptothecin (% of control)":59.1}
{"gene":"LGR5 (leucine rich repeat containing G protein-coupled receptor 5)","PubChem SID":"SID164398372","log2 vehicle/camptothecin viability":0.162,"viability with camptothecin (% of control)":36.1}
{"gene":"LGR5 (leucine rich repeat containing G protein-coupled receptor 5)","PubChem SID":"SID164398373","log2 vehicle/camptothecin viability":-0.626,"viability with camptothecin (% of control)":63.2}
{"gene":"LGR5 (leucine rich repeat containing G protein-coupled receptor 5)","PubChem SID":"SID164398374","log2 vehicle/camptothecin viability":-0.11,"viability with camptothecin (% of control)":101}

Part of the list above, reformatted.
gene,PubChem SID,log2 vehicle/camptothecin viability,viability with camptothecin (% of control)
MPZ (myelin protein zero),SID164376059,-0.0347,59.6
MPZ (myelin protein zero),SID164376060,-0.0991,89.7
MPZ (myelin protein zero),SID164376063,-0.0669,101
MPZ (myelin protein zero),SID164376066,0.169,67.1
ZMYM2 (zinc finger MYM-type containing 2),SID164395230,1.04,22.7
